Assay results: the supplement of paper PMC12542422
Where a name gives a salt, the structure may show the parent alone. ± gives the standard deviation of the averaged measurements. The list shows a part of the results. Values are raw readings; no control value is given beside them.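 HeLa cells imaged for ribosome-assembly readouts (ENP1 staining with or without export block, or inducible tagged ribosomal protein reporters); machine learning classified each cell's signal location against solvent (DMSO) controls. Hits exceeded the DMSO false-positive mean by five standard deviations, then were visually confirmed; three biological replicates.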

Tested on: HeLa RPL29-GFP reporter
Assay: fraction of reporter-positive cells with nuclear (nucleolar or nucleolar/nucleoplasmic) RPL29-GFP (MainHitrate); higher = more cells with nucleolar/nuclear readout signal (for ENP1 -LMB: less RNAPI inhibition; for +LMB ENP1 and RP reporters: stronger nuclear/nucleolar retention, i.e. ribosome biogenesis defect)
Settings: concentration: 1 µM; treatment time: 6 h

| SMILES | fraction of reporter-positive cells with nuclear |
| --- | --- |
| CNCC[C@@H](Oc1ccccc1C)c1ccccc1 [Atomoxetine HCl] | 0.205 ± 0.087 |
| CCN(CC)CCCC(C)Nc1ccnc2cc(Cl)ccc12 (configuration not stated) [Chloroquine Phosphate] | 0.186 ± 0.023 |
| CC(C[N+](C)(C)C)OC(N)=O (configuration not stated) [Bethanechol chloride] | 0.231 ± 0.092 |
| COC(=O)Nc1nc2cc(Sc3ccccc3)ccc2[nH]1 [Fenbendazole (Panacur)] | 0.254 ± 0.097 |
| Nc1ccn([C@@H]2CS[C@H](CO)O2)c(=O)n1 [Lamivudine (Epivir)] | 0.203 ± 0.041 |
| CC(=O)Oc1ccccc1C(=O)O [Aspirin (Acetylsalicylic acid)] | 0.215 ± 0.043 |
| Cc1cccc(N(C)C(=S)Oc2ccc3ccccc3c2)c1 [Tolnaftate] | 0.244 ± 0.064 |
| CC[C@@]1(O)C(=O)OCc2c1cc1n(c2=O)Cc2cc3c(CN(C)C)c(O)ccc3nc2-1 [Topotecan HCl] | 0.174 ± 0.073 |
| C[C@]12CCC3=C4CCC(=O)C=C4CC[C@H]3[C@@H]1CC[C@@]2(O)CC#N [Dienogest] | 0.215 ± 0.074 |
| OC(CNCC(O)C1CCc2cc(F)ccc2O1)C1CCc2cc(F)ccc2O1 (configuration not stated) [Nebivolol (Bystolic)] | 0.215 ± 0.06 |
| Nc1ncnc2c1ncn2[C@@H]1O[C@H](COP(=O)(O)OP(=O)(O)OP(=O)(O)O)[C@@H](O)[C@H]1O [ATP (Adenosine-Triphosphate)] | 0.229 ± 0.1 |
| COC(=O)Nc1nc2cc([S+]([O-])c3ccccc3)ccc2[nH]1 (configuration not stated) [Oxfendazole] | 0.24 ± 0.076 |
| O=C(O)c1ccccc1 [Benzoic acid] | 0.193 ± 0.026 |
| CCCc1nc(C(C)(C)O)c(C(=O)OCc2oc(=O)oc2C)n1Cc1ccc(-c2ccccc2-c2nnn[nH]2)cc1 [Olmesartan medoxomil (Benicar)] | 0.208 ± 0.074 |
| O=C(O)c1cc(-c2ccccc2)nc2ccccc12 [Cinchophen] | 0.226 ± 0.054 |
| Clc1ccc(C(c2ccccc2Cl)C(Cl)Cl)cc1 (configuration not stated) [Mitotane (Lysodren)] | 0.215 ± 0.058 |
| CCCCOc1ccc(C(=O)CCN2CCCCC2)cc1 [Dyclonine HCl] | 0.225 ± 0.049 |

Five entries from above in another layout:
SMILES	fraction of reporter-positive cells with nuclear
COC(=O)Nc1nc2cc(Sc3ccccc3)ccc2[nH]1 [Fenbendazole (Panacur)]	0.254 ± 0.097
Nc1ccn([C@@H]2CS[C@H](CO)O2)c(=O)n1 [Lamivudine (Epivir)]	0.203 ± 0.041
OC(CNCC(O)C1CCc2cc(F)ccc2O1)C1CCc2cc(F)ccc2O1 (configuration not stated) [Nebivolol (Bystolic)]	0.215 ± 0.06
COC(=O)Nc1nc2cc([S+]([O-])c3ccccc3)ccc2[nH]1 (configuration not stated) [Oxfendazole]	0.24 ± 0.076
O=C(O)c1cc(-c2ccccc2)nc2ccccc12 [Cinchophen]	0.226 ± 0.054
